Values of other authors, collected in patent US9994525B2, “H3 antagonists containing phenoxypiperidine core structure” (RICHTER GEDEON NYRT., priority 2013, dated 2018).
At least one structure is not confirmed: it was looked up by name or label, or the drawing left a doubt.

Conditions: cited from earlier work

## CN(C)[C@@H]1CCN(CCCOc2ccc(-c3ccc(C#N)cc3)cc2)C1 [Example A-331440]
  genotoxicity: Genotoxicity
